Experimental data: PubChem BioAssay AID1259254 (NCATS, 2017)
Shown is an unselected part of about 59,000 reagents tested. Over the whole deposit, about 1,550 (2.6%) were called active. 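G2 share is only a proxy for re-replication; each gene was hit by three separate siRNAs, and active genes were retested.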 A number with no mark means an inactive call. Reagents against one gene are numbered here. Further read-outs or replicates are left out here. Not given: the amount of reagent.

- Screen: 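Genome-wide screen for genes that prevent DNA re-replication in cancer cells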 (primary screen)
- Cells: human HCT116 colorectal cancer cells
- Knock-down reagent: single siRNA against human genes
- Timing: 3 days
- Measured: 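Nuclei stained with Hoechst and imaged; cell-cycle phase assigned by DNA content; G2 share scaled per plate, non-targeting siRNA 0%, GMNN siRNA 100%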
- Reading the numbers: G2 robust z-score and G2 cells, % of GMNN control: higher = more G2 cells, more excess DNA replication
- Hit rule: 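Active siRNAs have a G2 robust z of 5 or more median absolute deviations over the median, which in these data means about 38% or higher of GMNN control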

What did the screen give for RPL27P8 #1?
G2 robust z-score: -0.434; G2 cells, % of GMNN control: -0.0882

With RPL27P8 #2, how do the results read?
G2 robust z-score: -0.461; G2 cells, % of GMNN control: -0.274

What is on record for RPL27P8 #3?
G2 robust z-score: -0.371; G2 cells, % of GMNN control: 0.359

With ZNF680 #1, how do the results read?
G2 robust z-score: 5.16 (active); G2 cells, % of GMNN control: 39.3

What is on record for ZNF680 #2?
G2 robust z-score: 1.05; G2 cells, % of GMNN control: 10.3

What did the screen give for ZNF680 #3?
G2 robust z-score: 0.234; G2 cells, % of GMNN control: 4.62

With CENPA #1, what was measured?
G2 robust z-score: 1.04; G2 cells, % of GMNN control: 10.3

What did the screen give for CENPA #2?
G2 robust z-score: 3.67; G2 cells, % of GMNN control: 28.8

What did the screen give for CENPA #3?
G2 robust z-score: -0.247; G2 cells, % of GMNN control: 1.23

2 consecutive records already listed, for reference:
ZNF680 #2 | G2 robust z-score = 1.05; G2 cells, % of GMNN control = 10.3
ZNF680 #3 | G2 robust z-score = 0.234; G2 cells, % of GMNN control = 4.62

The list goes on.
With MBOAT1 #1, what does the deposit list?
G2 robust z-score: -1.41; G2 cells, % of GMNN control: -6.95

What did the screen give for MBOAT1 #2?
G2 robust z-score: 0.502; G2 cells, % of GMNN control: 6.5

What is on record for MBOAT1 #3?
G2 robust z-score: -0.615; G2 cells, % of GMNN control: -1.36

With SCML4 #1, how do the results read?
G2 robust z-score: 1.99; G2 cells, % of GMNN control: 16.9

For SCML4 #2, what does the deposit list?
G2 robust z-score: 4.51; G2 cells, % of GMNN control: 34.7

With SCML4 #3, what does the deposit list?
G2 robust z-score: -0.136; G2 cells, % of GMNN control: 2.01

With CCDC162P #1, what does the deposit list?
G2 robust z-score: 0.172; G2 cells, % of GMNN control: 4.18

Which result is listed for CCDC162P #2?
G2 robust z-score: 0.439; G2 cells, % of GMNN control: 6.06

For CCDC162P #3, how do the results read?
G2 robust z-score: -0.785; G2 cells, % of GMNN control: -2.55

For CCDC162P #4, what does the deposit list?
G2 robust z-score: -0.58; G2 cells, % of GMNN control: -1.11

With CCDC162P #5, how do the results read?
G2 robust z-score: -0.357; G2 cells, % of GMNN control: 0.456

What did the screen give for CCDC162P #6?
G2 robust z-score: -0.229; G2 cells, % of GMNN control: 1.35

What did the screen give for HNRNPA1P60 #1?
G2 robust z-score: 1.24; G2 cells, % of GMNN control: 11.7

With HNRNPA1P60 #2, what was measured?
G2 robust z-score: 0.15; G2 cells, % of GMNN control: 4.02

Which result is listed for HNRNPA1P60 #3?
G2 robust z-score: -0.946; G2 cells, % of GMNN control: -3.69
